Values from PubChem BioAssay AID1259254 (NCATS, 2017).

Aim: 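Finding genes that stop cells copying their DNA twice in one cycle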 (primary screen)
System: human HCT116 colorectal cancer cells
Reagents: single siRNA against human genes
Time to read-out: 3 days
Measured: 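Imaged Hoechst DNA stain sorts each cell into a cycle phase by DNA amount; per plate, G2 fraction set to 0% for non-targeting and 100% for GMNN siRNA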
Scale: G2 robust z-score and G2 cells, % of GMNN control: higher = more G2 cells, more excess DNA replication
Hit rule: 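An siRNA counts as active if its G2 robust z-score lies at least 5 MADs above the screen median; here such calls match roughly 38% of GMNN control or more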
The deposit covers about 59,000 reagents; this is an unselected part. About 1,550 of them (2.6%) count as active. 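G2 share is only a proxy for re-replication; each gene was hit by three separate siRNAs, and active genes were retested.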 Entries without a mark were called inactive. The numbers tell different reagents against one gene apart. Not all columns of the deposit are shown. Not given: the amount of reagent.

For ACSM5 (acyl-CoA synthetase medium chain family member 5) #1, how do the results read?
G2 robust z-score: 0.709; G2 cells, % of GMNN control: 7.96

What is on record for ACSM5 (acyl-CoA synthetase medium chain family member 5) #2?
G2 robust z-score: -0.569; G2 cells, % of GMNN control: -1.04

What is on record for ACSM5 (acyl-CoA synthetase medium chain family member 5) #3?
G2 robust z-score: -0.548; G2 cells, % of GMNN control: -0.888

With DCAF15 (DDB1 and CUL4 associated factor 15) #1, what does the deposit list?
G2 robust z-score: -0.294; G2 cells, % of GMNN control: 0.902

For DCAF15 (DDB1 and CUL4 associated factor 15) #2, what was measured?
G2 robust z-score: -1.12; G2 cells, % of GMNN control: -4.88

How did the screen score DCAF15 (DDB1 and CUL4 associated factor 15) #3?
G2 robust z-score: -0.245; G2 cells, % of GMNN control: 1.24

How did the screen score CAMK1G (calcium/calmodulin dependent protein kinase IG) #1?
G2 robust z-score: 1.41; G2 cells, % of GMNN control: 12.9

How did the screen score CAMK1G (calcium/calmodulin dependent protein kinase IG) #2?
G2 robust z-score: -1.33; G2 cells, % of GMNN control: -6.37

With CAMK1G (calcium/calmodulin dependent protein kinase IG) #3, how do the results read?
G2 robust z-score: 0.706; G2 cells, % of GMNN control: 7.93

How did the screen score GLI1 (GLI family zinc finger 1) #1?
G2 robust z-score: -0.745; G2 cells, % of GMNN control: -2.28

For GLI1 (GLI family zinc finger 1) #2, how do the results read?
G2 robust z-score: 2.11; G2 cells, % of GMNN control: 17.8

With GLI1 (GLI family zinc finger 1) #3, what was measured?
G2 robust z-score: 0.0833; G2 cells, % of GMNN control: 3.55

Entries above whose target name begins with G or g:
GLI1 (GLI family zinc finger 1) #1 | G2 robust z-score = -0.745; G2 cells, % of GMNN control = -2.28
GLI1 (GLI family zinc finger 1) #2 | G2 robust z-score = 2.11; G2 cells, % of GMNN control = 17.8
GLI1 (GLI family zinc finger 1) #3 | G2 robust z-score = 0.0833; G2 cells, % of GMNN control = 3.55

Additional records:
What did the screen give for STAT6 (signal transducer and activator of transcription 6) #1?
G2 robust z-score: -0.244; G2 cells, % of GMNN control: 1.25

Which result is listed for STAT6 (signal transducer and activator of transcription 6) #2?
G2 robust z-score: 2.36; G2 cells, % of GMNN control: 19.6

How did the screen score STAT6 (signal transducer and activator of transcription 6) #3?
G2 robust z-score: -1.01; G2 cells, % of GMNN control: -4.12

How did the screen score CSRP3 (cysteine and glycine rich protein 3) #1?
G2 robust z-score: 0.117; G2 cells, % of GMNN control: 3.79

With CSRP3 (cysteine and glycine rich protein 3) #2, what does the deposit list?
G2 robust z-score: -0.904; G2 cells, % of GMNN control: -3.4

Which result is listed for CSRP3 (cysteine and glycine rich protein 3) #3?
G2 robust z-score: 0.295; G2 cells, % of GMNN control: 5.05
